Paper PMC6739875
Results are given in words; binding and its absence hold for the method and conditions named. In cells and extracts the contact can be indirect. Some entries that bind do so weakly or less than the wild type. Sequences can lack the tags named with a protein.

Biological target: T1, FLAG-tagged EEN (EIN6 ENHANCER), in vitro translated (A. thaliana) (UniProt Q8RWS0)
T1 sequence: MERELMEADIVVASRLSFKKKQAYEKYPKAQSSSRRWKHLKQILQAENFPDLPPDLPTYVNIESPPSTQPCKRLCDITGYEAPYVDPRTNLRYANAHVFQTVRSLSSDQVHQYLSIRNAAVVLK
Assay: pull-down; in vitro translated FLAG-EEN bound to Anti-FLAG M2 Magnetic Beads for 1 hr and washed with WP buffer (50 mM Tris HCl pH 7.5, 100 mM NaCl, 1 mM EDTA, 1% DMSO, 2 mM TCEP, 0.1% NP-40), then incubated 2 hr with in vitro translated Halo-ARP5; three washes; immunoblot with anti-FLAG and anti-Halo; only the target purified

binding: binds
B1: Halo-tagged ARP5 (ACTIN-RELATED PROTEIN5), in vitro translated (protein, UniProt Q940Z2 1-724)
chain: MAFVSRIRRQSDYNTYPSSIPIVIDNGASYFRIGWAGETEPRVVFRNIVQRPRHKATGETVTIVGDLDPSMMKYFDCTRSGPRSPFDSNVVYQFEIMEYILDYAFDRLGANGSGIDHPILITECACNPVQSRSKMAELLFETYGVPAVAFGVDAAFSYKYNQLHGICKKDGIVLCPGFTTTHSIPFVDGEPIYKGSSRTNIGGYHVTDYLKQLLSLKYPFHSSRFTWEKAEDLKLEHCYIAPDYASEIRLFQEGRKEAEEKTSYWQLPWIPPPTEVPPSEEEIARKAAIREKQGQRLREMAEAKRVSKINDMENQLISLRFLLKQVDQVEEDDIPTFLSDTGYASRQELESTITKVTQSLRKARGEPKNEPAEYEENPDSLNNEKYPLMNVPDDILTPEQLKDKKRQMFLKTTAEGRLRARQKRNEEELEKEKRNQLEEERRRENPESYLEELQAQYKEVLERVEQKKRLKTNGSSNGNNKSGGIGRGERLSAAQRERMRLLTTAAFDRGKGEDTFGSRDEDWQLYKLMSKDNDDDDEQPDSDEAELARLSSRLQEIDPTFVQKVEGELSQTSGEVPRVRPLTEEDYKIVIGIERFRCPEILFHPNLIGIDQVGLDEMAGTSIRRLPHDEKELEERLTSSILMTGGCSLLPGMNERLECGIRMIRPCGSPINVVRAMDPVLDAWRGASAFAANLNFLGNAFTKMDYDEKGEDWLRNYQIRYNYL
